PubChem BioAssay AID330 (DTP/NCI, 2004)
The list is a part of this screen's results and no random one: it is rich in T/C values a quarter to a half above the control, in often repeated tests (any T/C) and in doses without a T/C. Other doses and runs of a compound stand elsewhere. T/C gives the treated animals as a percentage of the vehicle group. Some entries give survivors of the animals treated and no T/C: the source holds a T/C of zero for them, seemingly a mark for toxic or unscored doses. Some survivor counts are full or nearly so, which does not show that the dose was tolerated: survival well below the control is almost never listed, so the zero probably covers shortened survival too. Survivors were counted at the toxicity check, usually on the fifth day, unless a day is given; later deaths do not show. Schedule codes are those of the source, taken here to give the interval after Q, in days (D) or hours (H), and the number of doses after X. Some entries were tested several times; the results are listed from low to high. Where survival is the endpoint, the PubChem record calls one and a half times the control and up active, and a quarter to a half above the control has no call in these data; cut-offs in other NCI protocols can differ. Some T/C values carry the count of animals alive at the toxicity check (mostly the fifth day); where none is given, no animal had died by that day.

Tested on: P388 leukemia ip, CD2F1 mice, survival T/C
Test: NCI In Vivo Anticancer Drug Screen. Data for tumor model P388 Leukemia (intraperitoneal) in CD2F1 (CDF1) mice
Conditions: T/C endpoint: median survival time, higher T/C = longer survival
[1] = dose: 1.0 mg/kg/injection, schedule: Q01DX009 (ip), vehicle: Klucel (hydroxypropylcellulose) (HPC)

For `COc1ccc(CC2C(=O)NC(C)C(=O)N(C)C3C(=O)N(C)C(Cc4ccc(O)c(c4)Oc4ccc(cc4)C3O)C(=O)NC(C)C(=O)NC(C)C(=O)N2C)cc1` (stereo not given), the T/C (dose: 0.06 mg/kg/injection, schedule: Q03HX024 (ip), vehicle: saline + alcohol) was 133 % of control, the T/C (dose: 0.12 mg/kg/injection, schedule: Q01DX009 (ip), vehicle: Klucel (hydroxypropylcellulose) (HPC)) was 135 % of control and the T/C (dose: 0.13 mg/kg/injection, schedule: Q03HX008 (ip), vehicle: saline + alcohol) was 133 % of control. For the same compound, the T/C (dose: 0.13 mg/kg/injection, schedule: Q03HX016 (ip), vehicle: saline + alcohol) was 131 % of control, the T/C (dose: 0.25 mg/kg/injection, schedule: Q01DX005 (ip), vehicle: other) was 126 % of control and the T/C (dose: 0.25 mg/kg/injection, schedule: Q01DX009 (ip), vehicle: Klucel (hydroxypropylcellulose) (HPC)) was 143 and 147 % of control. For the same compound, the T/C (dose: 0.25 mg/kg/injection, schedule: Q01DX009 (ip), vehicle: clinical formulation) was 148 % of control, the T/C (dose: 0.25 mg/kg/injection, schedule: Q01DX009 (ip), vehicle: other) was 143 % of control and the T/C (dose: 0.25 mg/kg/injection, schedule: Q01DX009 (ip), vehicle: water) was 142 % of control. The T/C (dose: 0.25 mg/kg/injection, schedule: Q03HX008 (ip), vehicle: saline + alcohol) was 141 % of control, the T/C (dose: 0.25 mg/kg/injection, schedule: Q03HX016 (ip), vehicle: saline + alcohol) was 143 % of control and the T/C (dose: 0.5 mg/kg/injection, schedule: Q01DX005 (ip), vehicle: other) was 141 % of control. For the same compound, the T/C (dose: 0.5 mg/kg/injection, schedule: Q01DX005 (ip), vehicle: saline) was 132 % of control, the T/C (dose: 0.5 mg/kg/injection, schedule: Q01DX009 (ip), vehicle: Klucel (hydroxypropylcellulose) (HPC)) was 148 % of control and the T/C (dose: 0.5 mg/kg/injection, schedule: Q01DX009 (ip), vehicle: other) was 148 % of control. The T/C (dose: 0.5 mg/kg/injection, schedule: Q03HX008 (ip), vehicle: other) was 138 % of control, the T/C (dose: 0.5 mg/kg/injection, schedule: Q03HX008 (ip), vehicle: saline + alcohol) was 147 % of control and the T/C (dose: 0.5 mg/kg/injection, schedule: Q03HX016 (ip), vehicle: other) was 144 % of control. The survivor count (dose: 0.5 mg/kg/injection, schedule: Q03HX024 (ip), vehicle: other) was 10 of 10, the T/C (dose: 0.5 mg/kg/injection, schedule: Q04DX003 (ip), vehicle: other) was 137 % of control and the T/C (dose: 1.0 mg/kg/injection, schedule: Q01DX005 (ip), vehicle: other) was 149 % of control. For the same compound, the T/C (dose: 1.0 mg/kg/injection, schedule: Q01DX005 (iv), vehicle: saline) was 142 % of control, the T/C [1] was 148 % of control and the survivor count [1] was 8 of 10. The T/C (dose: 1.0 mg/kg/injection, schedule: Q01DX009 (ip), vehicle: saline + alcohol) was 130 % of control, the survivor count (dose: 1.0 mg/kg/injection, schedule: Q03HX008 (ip), vehicle: other) was 2 of 10 and the survivor count (dose: 1.0 mg/kg/injection, schedule: Q03HX008 (ip), vehicle: saline + alcohol) was 6 of 10. The survivor count (dose: 1.0 mg/kg/injection, schedule: Q03HX016 (ip), vehicle: other) was 2 of 10, the survivor count (dose: 1.0 mg/kg/injection, schedule: Q03HX016 (ip), vehicle: saline + alcohol) was 5 of 10 and the survivor count (dose: 1.0 mg/kg/injection, schedule: Q03HX024 (ip), vehicle: other) was 2 of 10. For the same compound, the T/C (dose: 1.0 mg/kg/injection, schedule: Q04DX003 (ip), vehicle: other) was 149 % of control, the T/C (dose: 1.0 mg/kg/injection, schedule: Q08DX002 (ip), vehicle: other) was 131 % of control and the T/C (dose: 2.0 mg/kg/injection, schedule: Q01DX001 (ip), vehicle: other) was 132 % of control. The survivor count (dose: 2.0 mg/kg/injection, schedule: Q01DX005 (iv), vehicle: other) was 2 of 10, the survivor count (dose: 2.0 mg/kg/injection, schedule: Q01DX005 (iv), vehicle: saline) was 3 of 6 and the survivor count (dose: 2.0 mg/kg/injection, schedule: Q01DX009 (ip), vehicle: Klucel (hydroxypropylcellulose) (HPC)) was 4 of 10. The survivor count (dose: 2.0 mg/kg/injection, schedule: Q01DX009 (ip), vehicle: saline + alcohol) was 6 of 6, the survivor count (dose: 2.0 mg/kg/injection, schedule: Q01DX009 (sc), vehicle: other) was 10 of 10 and the survivor count (dose: 2.0 mg/kg/injection, schedule: Q03HX008 (ip), vehicle: other) was 0 of 10. For the same compound, the survivor count (dose: 2.0 mg/kg/injection, schedule: Q03HX016 (ip), vehicle: other) was 0 of 10, the survivor count (dose: 2.0 mg/kg/injection, schedule: Q03HX024 (ip), vehicle: other) was 0 of 10 and the T/C (dose: 2.0 mg/kg/injection, schedule: Q08DX002 (ip), vehicle: other) was 147 % of control. The T/C (dose: 4.0 mg/kg/injection, schedule: Q01DX001 (ip), vehicle: other) was 132 % of control, the T/C (dose: 4.0 mg/kg/injection, schedule: Q01DX005 (ip), vehicle: saline) was 142 % of control [4 of 6 alive] and the survivor count (dose: 4.0 mg/kg/injection, schedule: Q01DX005 (iv), vehicle: other) was 0 of 10. For the same compound, the survivor count (dose: 4.0 mg/kg/injection, schedule: Q01DX005 (iv), vehicle: saline) was 0 of 6, the survivor count (dose: 4.0 mg/kg/injection, schedule: Q01DX009 (ip), vehicle: Klucel (hydroxypropylcellulose) (HPC)) was 1 of 10 and 4 of 6 and the survivor count (dose: 4.0 mg/kg/injection, schedule: Q01DX009 (ip), vehicle: clinical formulation) was 10 of 10. The survivor count (dose: 4.0 mg/kg/injection, schedule: Q01DX009 (ip), vehicle: saline + alcohol) was 1 of 6, the survivor count (dose: 4.0 mg/kg/injection, schedule: Q01DX009 (ip), vehicle: water) was 0 of 5 and the survivor count (dose: 4.0 mg/kg/injection, schedule: Q01DX009 (sc), vehicle: other) was 10 of 10. The survivor count (dose: 4.0 mg/kg/injection, schedule: Q03HX008 (ip), vehicle: other) was 0 of 10, the survivor count (dose: 4.0 mg/kg/injection, schedule: Q03HX016 (ip), vehicle: other) was 0 of 10 and the T/C (dose: 8.0 mg/kg/injection, schedule: Q01DX001 (ip), vehicle: other) was 141 % of control. For the same compound, the T/C (dose: 8.0 mg/kg/injection, schedule: Q08DX002 (ip), vehicle: other) was 144 % of control [9 of 10 alive], the survivor count (dose: 16.0 mg/kg/injection, schedule: Q01DX001 (ip), vehicle: other) was 2 of 10 and the survivor count (dose: 16.0 mg/kg/injection, schedule: Q08DX002 (ip), vehicle: other) was 1 of 10. For the same compound, the T/C (dose: 125.0 micrograms/kg/injection, schedule: Q01DX009 (ip), vehicle: saline with Tween-80) was 132 % of control, the T/C (dose: 250.0 micrograms/kg/injection, schedule: Q01DX009 (ip), vehicle: saline with Tween-80) was 146 % of control and the survivor count (dose: 4000.0 micrograms/kg/injection, schedule: Q01DX009 (ip), vehicle: saline with Tween-80) was 1 of 10.

`CN=C(NC1CCCCC1)c1ccc(NC(=O)c2ccc(C(=O)Nc3ccc(C(=NC)NC4CCCCC4)cc3)cc2)cc1` was tested, and the survivor count (dose: 12.5 mg/kg/injection, schedule: Q01DX005 (ip), vehicle: saline with Tween-80) was 0 of 6, the survivor count (dose: 25.0 mg/kg/injection, schedule: Q01DX005 (ip), vehicle: saline with Tween-80) was 0 of 6 and the survivor count (dose: 50.0 mg/kg/injection, schedule: Q01DX005 (ip), vehicle: saline with Tween-80) was 0 of 6. The survivor count (dose: 100.0 mg/kg/injection, schedule: Q01DX005 (ip), vehicle: saline with Tween-80) was 0 of 6 and the survivor count (dose: 200.0 mg/kg/injection, schedule: Q01DX005 (ip), vehicle: saline with Tween-80) was 0 of 6.
